From article PMC7214460
No constants are given. Whether binding was seen depends on the method and setting. In cells and extracts the contact can be indirect. Some entries that bind do so weakly or less than the wild type.

Protein sequences, listed by entry. Tags and fused reporters are not part of them. Residues count along the entry.
UniProt P11021, residues 19-654: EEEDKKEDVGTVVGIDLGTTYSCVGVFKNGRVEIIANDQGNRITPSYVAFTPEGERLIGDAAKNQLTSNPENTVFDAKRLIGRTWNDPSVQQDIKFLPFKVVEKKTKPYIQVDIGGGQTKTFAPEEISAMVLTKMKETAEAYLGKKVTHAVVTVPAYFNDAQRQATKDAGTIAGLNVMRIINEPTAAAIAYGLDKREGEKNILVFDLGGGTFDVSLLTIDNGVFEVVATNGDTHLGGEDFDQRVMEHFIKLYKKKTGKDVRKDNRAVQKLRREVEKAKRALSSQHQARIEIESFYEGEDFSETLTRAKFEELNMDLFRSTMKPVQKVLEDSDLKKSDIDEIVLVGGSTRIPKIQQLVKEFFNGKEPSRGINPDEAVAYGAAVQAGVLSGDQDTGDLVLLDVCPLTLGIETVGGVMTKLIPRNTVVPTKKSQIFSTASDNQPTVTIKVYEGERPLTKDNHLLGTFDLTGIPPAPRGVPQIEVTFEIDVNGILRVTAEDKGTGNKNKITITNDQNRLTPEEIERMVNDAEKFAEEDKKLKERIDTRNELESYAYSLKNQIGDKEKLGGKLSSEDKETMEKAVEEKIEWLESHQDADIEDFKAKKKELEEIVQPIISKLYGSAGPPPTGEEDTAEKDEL

B1: Polypeptide N-acetylgalactosaminyltransferase 6 (GALNT6) (enzyme, UniProt Q8NCL4 1-622)
chain: MRLLRRRHMPLRLAMVGCAFVLFLFLLHRDVSSREEATEKPWLKSLVSRKDHVLDLMLEAMNNLRDSMPKLQIRAPEAQQTLFSINQSCLPGFYTPAELKPFWERPPQDPNAPGADGKAFQKSKWTPLETQEKEEGYKKHCFNAFASDRISLQRSLGPDTRPPECVDQKFRRCPPLATTSVIIVFHNEAWSTLLRTVYSVLHTTPAILLKEIILVDDASTEEHLKEKLEQYVKQLQVVRVVRQEERKGLITARLLGASVAQAEVLTFLDAHCECFHGWLEPLLARIAEDKTVVVSPDIVTIDLNTFEFAKPVQRGRVHSRGNFDWSLTFGWETLPPHEKQRRKDETYPIKSPTFAGGLFSISKSYFEHIGTYDNQMEIWGGENVEMSFRVWQCGGQLEIIPCSVVGHVFRTKSPHTFPKGTSVIARNQVRLAEVWMDSYKKIFYRRNLQAAKMAQEKSFGDISERLQLREQLHCHNFSWYLHNVYPEMFVPDLTPTFYGAIKNLGTNQCLDVGENNRGGKPLIMYSCHGLGGNQYFEYTTQRDLRHNIAKQLCLHVSKGALGLGSCHFTGKNSQVPKDEEWELAQDQLIRNSGSGTCLTSQDKKPAMAPCNPSDPHQLWLFV

Assays:
[1] = target: T1, Polypeptide N-acetylgalactosaminyltransferase 6 (GALNT6) (human) (UniProt Q8NCL4); experiment: co-IP; A549 stable cells (GRP78-OE with NC or G6-OE) lysed; extracts reacted with anti-GALNT6 or anti-GRP78 at 4 °C for 1 h, precipitated on Protein A columns (Capturem IP & Co-IP Kit), Western blot with anti-GALNT6 and anti-GRP78
T1 sequence: B1 chain

[2] = target: Glucose-regulated protein 78 (GRP78) (human) (UniProt P11021); experiment: as above

Molecule | binding [1] | binding [2]
Glucose-regulated protein 78 (GRP78) (from UniProt P11021 19-654) | binds | –
B1 | – | binds
